Patent US7059206B1 (priority 1999, dated 2006)

Assays:
[1] = Electro-availability of metals at a naked mercury drop electrode, urban river water
[2] = Percentage availability of metals to the passive sampler, urban river water; conditions: relative to uptake of free ion
[3] = Nafion coated cellulose membrane

Compound | Electroavailability [1] [%] | Percentage availability of metals to the passive sampler [2, 3] [%] | Percentage availability of metals to the passive sampler ([2]; Uncoated cellulose membrane) [%]
[Zn] [Zinc] | 21 | 8 | 20
[Cd] [Cadmium] | 17 | 0.03 | 0.05
[Cu] [Copper] | 12 | 1 | 20
